Laboratory results as given in patent publication US8236556B2, “Method of modulating gene expression using an ecdysone receptor-based inducible gene expression system” (Intrexon Corporation, priority 2001, dated 2012).
At least one compound was matched to its structure with a doubt left.

Tested on: GAL4CfEcR-DEF/VP16HsRXRβ-(1-8)-LmUSP-(9-12)-EF (βchimera 9; switch 1.27) gene switch
Assay: Effect of 9-cis-retinoic acid as second ligand on transactivation of switch 1.27 in NIH3T3 cells (FIG. 12)
Assay type: cell-based, Choristoneura fumiferana
Procedure: In particular, Applicants have determined the effect of 9-cis-retinoic acid on the transactivation potential of the GAL4CfEcR-DEF/VP16HsRXRβ-(1-8)-LmUSP-(9-12)-EF (βchimera 9; switch 1.27) gene switch along with pFRLuc in NIH 3T3 cells in the presence of non-steroid (GSE) for 48 hours.
Briefly, GAL4CfEcR-DEF, pFRLuc and VP16HsRXRβ-(1-8)-LmUSP-(9-12)-EF (chimera #9) were transfected into NIH3T3 cells and the transfected cells were treated with 0, 0.04, 0.2, 1, 5 and 25 μM non-steroidal ligand (GSE) and 0, 1, 5 and 25 μM 9-cis-retinoic acid (Sigma Chemical Company). The reporter activity was measured at 48 hours after adding ligands.

In the case of `CC1=C(/C=C/C(C)=C\C=C\C(C)=C\C(=O)O)C(C)(C)CCC1` [9-cis-retinoic acid], the induction (1 μM 9-cis-retinoic acid added in addition to 0.04 μM non-steroid) is reported as “induction is greatly increased” and the “effect of second ligand on sensitivity to non-steroidal ligand” value (NIH3T3 cells, 48 hours, FIG. 12) is reported as “increased the sensitivity of CfEcR-DEF to non-steroidal ligand”.
